Results deposited as PubChem BioAssay AID493246 (Drosophila RNAi Screening Center, 2011).
Aim: 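Identify essential fly genes by loss of cell viability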 (primary screen). System: Drosophila Kc and S2R+ cells. Reagent: long dsRNA against Drosophila genes. Measured: 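Raw, unnormalised count of remaining cells in each well; per-plate z-scores of cell number underlie the calls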. Direction: Kc cell number and S2R+ cell number: higher = more cells remaining. Active means: 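Active when the per-plate z-score of cell number is 3 or more in the direction of fewer cells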.
The screen tested about 21,000 reagents; this is a random part of those with a known target gene and a result. In the full data, 429 (2%) are marked active. 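Values are raw and not normalised between plates; calls rest on per-plate z-scores that were not deposited.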 A plus sign joins genes that one reagent is predicted to hit. Reagent sequences are not shown. The record does not give: the amount of reagent, the time to read-out.

gene | dsRNA | Kc cell number, rep 1 | Kc cell number, rep 2 | S2R+ cell number, rep 1 | S2R+ cell number, rep 2 | Call
CG3216 | DRSC04347 | 1.65e6 | 1.77e6 | 1.36e6 | 4.43e5 | inactive
Alp10 | DRSC09749 | 1.34e6 | 1.26e6 | 1.15e6 | 1.21e6 | inactive
SkpA | DRSC18833 | 4.95e5 | – | 8.61e5 | – | inactive
Appl | DRSC17728 | 5.56e5 | – | 7.90e5 | – | inactive
CG31928 | DRSC00293 | 1.30e6 | 1.39e6 | 1.09e6 | 1.09e6 | inactive
CG6891 | DRSC20016 | 1.82e6 | 1.91e6 | 1.17e6 | 1.31e6 | inactive
dachs | DRSC02072 | 9.86e5 | 1.22e6 | 7.67e5 | 7.36e5 | inactive
dachs | DRSC02191 | 1.77e6 | 1.75e6 | 1.22e6 | 1.39e6 | inactive
CG32280 | DRSC08024 | 1.46e6 | 1.37e6 | 1.01e6 | 1.20e6 | inactive
Fuca | DRSC10591 | 1.48e6 | 1.71e6 | 1.33e6 | 1.36e6 | inactive
dsx-c73A | DRSC09435 | 1.37e6 | 1.40e6 | 1.12e6 | 1.25e6 | inactive
dsx-c73A | DRSC09914 | 1.35e6 | 1.46e6 | 1.38e6 | 1.42e6 | inactive
dsx-c73A | DRSC10429 | 1.26e6 | 1.44e6 | 1.23e6 | 1.34e6 | inactive
CG17754 | DRSC18131 | 5.45e5 | – | 9.39e5 | – | inactive
lic | DRSC20347 | 5.87e5 | – | 9.70e5 | – | inactive
Cyp6a8 | DRSC07384 | 1.38e6 | 1.54e6 | 1.13e6 | 1.02e6 | inactive
CG15376 (retired record) | DRSC18046 | 1.56e6 | 1.53e6 | 9.26e5 | 1.02e6 | inactive
IntS2 | DRSC20094 | 1.22e6 | 1.25e6 | 8.92e5 | 1.01e6 | inactive
CG43775 | DRSC04206 | 1.46e6 | 1.54e6 | 1.25e6 | 1.33e6 | inactive
Dll | DRSC04610 | 1.60e6 | 1.64e6 | 1.37e6 | 1.31e6 | inactive
Tpc1 | DRSC15614 | 1.73e6 | 1.79e6 | 1.26e6 | 1.37e6 | inactive
Tpc1 | DRSC16074 | 1.55e6 | 1.62e6 | 1.31e6 | 1.43e6 | inactive
Chsy | DRSC20175 | 1.44e6 | 1.43e6 | 1.05e6 | 1.10e6 | inactive
Chsy | DRSC20176 | 1.56e6 | 1.56e6 | 1.16e6 | 1.14e6 | inactive
CG33922 | DRSC00050 | 1.49e6 | 1.50e6 | 1.03e6 | 1.16e6 | inactive
CG13096 | DRSC02198 | 1.56e6 | 1.57e6 | 1.17e6 | 1.36e6 | inactive
CG17826 | DRSC10289 | 1.36e6 | 1.40e6 | 1.20e6 | 1.26e6 | inactive
CG8089 | DRSC07074 | 1.62e6 | 1.67e6 | 1.37e6 | 1.40e6 | inactive
CG34057 | DRSC08375 | 1.60e6 | 1.44e6 | 1.00e6 | 1.22e6 | inactive
CG6983 | DRSC10757 | 1.40e6 | 1.46e6 | 1.27e6 | 1.15e6 | inactive
CG4686 | DRSC15622 | 1.22e6 | 1.21e6 | 1.09e6 | 1.21e6 | inactive
TyrRS | DRSC10430 | 1.61e6 | 1.71e6 | 1.55e6 | 1.58e6 | inactive
CG33110 | DRSC14694 | 1.28e6 | 1.26e6 | 5.86e5 | 6.54e5 | active
CG33110 | DRSC16137 | 1.74e6 | 1.66e6 | 9.87e5 | 1.17e6 | inactive
CG17806 | DRSC15276 | 1.54e6 | 1.62e6 | 1.19e6 | 1.25e6 | inactive
CG11211 | DRSC04851 | 1.57e6 | 1.68e6 | 1.44e6 | 1.52e6 | inactive
NdufV3 | DRSC19423 | 1.93e6 | 1.70e6 | 1.17e6 | 1.32e6 | inactive
CG5535 | DRSC10514 | 1.56e6 | 1.54e6 | 1.43e6 | 1.42e6 | inactive
CG33232 (retired record) | DRSC08187 | 1.39e6 | 1.49e6 | 1.30e6 | 1.37e6 | inactive
CG33232 (retired record) | DRSC08495 | 1.27e6 | 1.57e6 | 1.00e6 | 1.17e6 | inactive
Ice2 | DRSC14268 | 1.83e6 | 1.87e6 | 1.49e6 | 1.49e6 | inactive
Rab21 | DRSC20968 | 1.65e6 | 1.77e6 | 1.11e6 | 1.23e6 | inactive
CG9135 | DRSC03144 | 1.21e6 | 1.26e6 | 5.93e5 | 8.67e5 | inactive
Kdm4A | DRSC06586 | 1.43e6 | 1.48e6 | 1.15e6 | 1.19e6 | inactive
Octbeta1R | DRSC16134 | 1.28e6 | 1.26e6 | 8.85e5 | 9.71e5 | inactive
CG13248 | DRSC11696 | 1.37e6 | 1.44e6 | 1.31e6 | 1.38e6 | inactive
Oseg5 | DRSC03209 | 1.82e6 | 1.89e6 | 1.23e6 | 2.65e5 | inactive
Nrx-IV | DRSC11238 | 1.34e6 | 1.51e6 | 1.28e6 | 1.17e6 | inactive
ppk18 | DRSC02216 | 1.62e6 | 1.65e6 | 1.24e6 | 1.42e6 | inactive
Scp2 | DRSC13166 | 1.55e6 | 1.59e6 | 1.10e6 | 1.22e6 | inactive
Scp2 | DRSC16854 | 1.43e6 | 1.45e6 | 1.12e6 | 1.24e6 | inactive
Gyc89Db | DRSC15009 | 1.70e6 | 1.88e6 | 1.20e6 | 1.31e6 | inactive
CG9389 | DRSC11857 | 1.46e6 | 1.55e6 | 1.32e6 | 1.36e6 | inactive
CG7506 | DRSC10860 | 1.60e6 | 1.68e6 | 1.28e6 | 1.24e6 | inactive
CG42726 + CG42727 | DRSC14485 | 1.70e6 | 1.82e6 | 1.42e6 | 1.55e6 | inactive
RpS28a | DRSC15064 | 1.53e6 | 1.55e6 | 1.12e6 | 1.20e6 | inactive
e(y)3 | DRSC19450 | 1.65e6 | 1.72e6 | 9.96e5 | 1.13e6 | inactive
CG8042 | DRSC09676 | 1.42e6 | 1.45e6 | 1.28e6 | 1.26e6 | inactive
RpL13A | DRSC12265 | 1.10e6 | 1.22e6 | 7.28e5 | 7.87e5 | active
CG13014 | DRSC19533 | 1.50e6 | 1.48e6 | 1.04e6 | 1.14e6 | inactive
CG31835 + CG42585 | DRSC01412 | 1.62e6 | 1.78e6 | 1.00e6 | 1.19e6 | inactive
Hexo1 | DRSC08663 | 1.54e6 | 1.51e6 | 1.13e6 | 1.43e6 | inactive
twit | DRSC03210 | 1.46e6 | 1.55e6 | 1.03e6 | 1.08e6 | inactive
SdhC | DRSC16088 | 1.78e6 | 1.74e6 | 1.15e6 | 1.24e6 | inactive
CG42505 + CG42504 + CG31358 | DRSC15235 | 1.51e6 | 1.52e6 | 1.25e6 | 1.30e6 | inactive
CG42505 + CG42504 + CG31358 | DRSC15309 | 1.87e6 | 1.92e6 | 1.48e6 | 1.56e6 | inactive
CG4198 | DRSC18354 | 6.39e5 | – | 8.57e5 | – | inactive
CycB3 | DRSC16618 | 1.60e6 | 1.61e6 | 9.15e5 | 1.02e6 | inactive
CG13243 | DRSC01920 | 1.80e6 | 2.02e6 | 1.31e6 | 1.43e6 | inactive
CG12012 | DRSC08220 | 1.47e6 | 1.32e6 | 1.05e6 | 1.27e6 | inactive
CG15696 | DRSC15118 | 1.29e6 | 1.34e6 | 1.06e6 | 1.08e6 | inactive
CG3253 | DRSC04350 | 1.48e6 | 1.55e6 | 1.11e6 | 1.12e6 | inactive
CG43861 + CG12508 (retired record) | DRSC02170 | 1.58e6 | 1.63e6 | 1.28e6 | 3.26e5 | inactive
CG11227 | DRSC20476 | 1.46e6 | 1.49e6 | 1.12e6 | 1.17e6 | inactive
Acbp1 | DRSC03093 | 1.44e6 | 1.61e6 | 1.22e6 | 1.40e6 | inactive
